PubChem BioAssay AID1053208, Peter MacCallum Cancer Centre, 2014
This is a random part of about 17,000 deposited reagents. Over the whole deposit, 788 (4.7%) are marked active. 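Calls rest on z-score classes alone; an extra cut-off of viability at most 70% of control was not applied to them.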 Entries without a mark were called inactive.

Test: 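Find knock-downs that sensitise mouse osteosarcoma cells to doxorubicin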 (primary screen)
System: mouse osteosarcoma cells, early-passage culture from an engineered mouse model of fibroblastic bone tumour
Reagents: siRNA pool against mouse genes, 40 nM
Duration: about 120 h (48 h before drug, then 72 h with drug)
Challenge: doxorubicin 100 nM for 72 h, roughly 30-40% inhibitory dose
Measurement: 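Viability read as ATP luminescence after 72 h of 100 nM doxorubicin or none, duplicate wells averaged, scaled to non-targeting siRNA, then expressed as robust z-scores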
Reading the numbers: viability z-score with doxorubicin and doxorubicin viability vs non-targeting: higher = more viable cells under doxorubicin; viability z-score without drug: higher = more viable cells with knock-down alone; z-score of drug to no-drug ratio: higher = less drug sensitisation by knock-down
Hit rule: 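a pool counts as active when its viability z-score with doxorubicin is -2 or below and its z-score without drug lies between -2 and 2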

gene,combined z-score class,viability z-score with doxorubicin,viability z-score without drug,z-score of drug to no-drug ratio,doxorubicin viability vs non-targeting
Katnal2 (katanin p60 subunit A-like 2),no change with or without drug,0.45,1.52,-0.45,0.98
Tars1 (threonyl-tRNA synthetase 1),no change with or without drug,1.01,-0.17,1.35,1.03
Msi2 (musashi RNA-binding protein 2),no change with or without drug,0.45,-1.18,1.46,0.98
Tbx3 (T-box 3),no change with or without drug,0,-0.17,0.22,0.94
Abcg1 (ATP binding cassette subfamily G member 1),no change with or without drug,-0.67,-1.35,0.34,0.88
"Rasl2-9 (RAS-like, family 2, locus 9)",no change with or without drug,-0.45,1.52,-1.24,0.9
Olfml2b (olfactomedin-like 2B),no change with or without drug,-0.22,-0.84,0.45,0.92
Dusp21 (dual specificity phosphatase 21),no change with or without drug,0.11,0.51,-0.11,0.95
Bcl7b (B cell CLL/lymphoma 7B),no change with or without drug,0.22,0.51,0,0.96
Trim24 (tripartite motif-containing 24),no change with or without drug,-0.67,-0.51,-0.22,0.88
Tspan17 (tetraspanin 17),no change with or without drug,0.67,1.18,0,1
Pknox2 (Pbx/knotted 1 homeobox 2),no change with or without drug,0.67,1.18,0,1
Clxn (calaxin),no change with or without drug,0.22,0.51,0,0.96
"Zdhhc15 (zinc finger, DHHC domain containing 15)",no change with or without drug,0.79,1.52,-0.11,1.01
Zfx (zinc finger protein X-linked),high cell count with and without drug,3.26,2.36,1.69,1.23
Ppif (peptidylprolyl isomerase F (cyclophilin F)),no change with or without drug,0,-0.84,0.67,0.94
Adcy10 (adenylate cyclase 10),no change with or without drug,0,0.17,0,0.94
"Hcn2 (hyperpolarization-activated, cyclic nucleotide-gated K+ 2)",no change with or without drug,0,0.17,0,0.94
Cdkn2d (cyclin dependent kinase inhibitor 2D),low cell count without drug only,-1.12,-2.19,0.45,0.84
Pde1c (phosphodiesterase 1C),no change with or without drug,1.12,1.18,0.45,1.04
"Mycs (myc-like oncogene, s-myc protein)",no change with or without drug,-0.45,-0.17,-0.22,0.9
Zrsr2-ps1,low cell count with doxorubicin only (active),-2.25,-0.51,-2.02,0.74
Nrg3 (neuregulin 3),no change with or without drug,0.9,-1.85,2.59,1.02
"Serpine2 (serine (or cysteine) peptidase inhibitor, clade E, member 2)",no change with or without drug,1.8,0.84,1.35,1.1
Nolc1 (nucleolar and coiled-body phosphoprotein 1),low cell count without drug only,0.22,-2.53,2.47,0.96
Ptprn (protein tyrosine phosphatase receptor type N),no change with or without drug,-1.12,-0.34,-0.9,0.84
Plekhg2 (pleckstrin homology and RhoGEF domain containing G2),no change with or without drug,-0.45,-1.18,0.45,0.9
Cdc42ep2 (CDC42 effector protein 2),no change with or without drug,0.11,0.51,-0.11,0.95
"Crybb2 (crystallin, beta B2)",no change with or without drug,-0.79,-0.34,-0.45,0.87
Tmem108 (transmembrane protein 108),no change with or without drug,0.79,0.51,0.56,1.01
Map2k6 (mitogen-activated protein kinase kinase 6),no change with or without drug,0.22,0.84,-0.22,0.96
Arhgap5 (Rho GTPase activating protein 5),no change with or without drug,-0.67,-0.84,0,0.88
Arhgap20 (Rho GTPase activating protein 20),no change with or without drug,1.12,0.84,0.67,1.04
Ppih (peptidyl prolyl isomerase H),no change with or without drug,-0.67,-0.84,0,0.88

4 of these entries, set out differently.
gene | combined z-score class | viability z-score with doxorubicin | viability z-score without drug | z-score of drug to no-drug ratio | doxorubicin viability vs non-targeting
Tspan17 (tetraspanin 17) | no change with or without drug | 0.67 | 1.18 | 0 | 1
Pknox2 (Pbx/knotted 1 homeobox 2) | no change with or without drug | 0.67 | 1.18 | 0 | 1
Clxn (calaxin) | no change with or without drug | 0.22 | 0.51 | 0 | 0.96
Zdhhc15 (zinc finger, DHHC domain containing 15) | no change with or without drug | 0.79 | 1.52 | -0.11 | 1.01
